Among the data in the supplement of paper PMC10849652 are log2 fold change values, retold here.

By UniProt entry, the sequences of proteins in these tests, tags left out. Where a name states a change or a piece, a line headed by the entry shows the natural chain unless it says otherwise.
UniProt Q8NI27: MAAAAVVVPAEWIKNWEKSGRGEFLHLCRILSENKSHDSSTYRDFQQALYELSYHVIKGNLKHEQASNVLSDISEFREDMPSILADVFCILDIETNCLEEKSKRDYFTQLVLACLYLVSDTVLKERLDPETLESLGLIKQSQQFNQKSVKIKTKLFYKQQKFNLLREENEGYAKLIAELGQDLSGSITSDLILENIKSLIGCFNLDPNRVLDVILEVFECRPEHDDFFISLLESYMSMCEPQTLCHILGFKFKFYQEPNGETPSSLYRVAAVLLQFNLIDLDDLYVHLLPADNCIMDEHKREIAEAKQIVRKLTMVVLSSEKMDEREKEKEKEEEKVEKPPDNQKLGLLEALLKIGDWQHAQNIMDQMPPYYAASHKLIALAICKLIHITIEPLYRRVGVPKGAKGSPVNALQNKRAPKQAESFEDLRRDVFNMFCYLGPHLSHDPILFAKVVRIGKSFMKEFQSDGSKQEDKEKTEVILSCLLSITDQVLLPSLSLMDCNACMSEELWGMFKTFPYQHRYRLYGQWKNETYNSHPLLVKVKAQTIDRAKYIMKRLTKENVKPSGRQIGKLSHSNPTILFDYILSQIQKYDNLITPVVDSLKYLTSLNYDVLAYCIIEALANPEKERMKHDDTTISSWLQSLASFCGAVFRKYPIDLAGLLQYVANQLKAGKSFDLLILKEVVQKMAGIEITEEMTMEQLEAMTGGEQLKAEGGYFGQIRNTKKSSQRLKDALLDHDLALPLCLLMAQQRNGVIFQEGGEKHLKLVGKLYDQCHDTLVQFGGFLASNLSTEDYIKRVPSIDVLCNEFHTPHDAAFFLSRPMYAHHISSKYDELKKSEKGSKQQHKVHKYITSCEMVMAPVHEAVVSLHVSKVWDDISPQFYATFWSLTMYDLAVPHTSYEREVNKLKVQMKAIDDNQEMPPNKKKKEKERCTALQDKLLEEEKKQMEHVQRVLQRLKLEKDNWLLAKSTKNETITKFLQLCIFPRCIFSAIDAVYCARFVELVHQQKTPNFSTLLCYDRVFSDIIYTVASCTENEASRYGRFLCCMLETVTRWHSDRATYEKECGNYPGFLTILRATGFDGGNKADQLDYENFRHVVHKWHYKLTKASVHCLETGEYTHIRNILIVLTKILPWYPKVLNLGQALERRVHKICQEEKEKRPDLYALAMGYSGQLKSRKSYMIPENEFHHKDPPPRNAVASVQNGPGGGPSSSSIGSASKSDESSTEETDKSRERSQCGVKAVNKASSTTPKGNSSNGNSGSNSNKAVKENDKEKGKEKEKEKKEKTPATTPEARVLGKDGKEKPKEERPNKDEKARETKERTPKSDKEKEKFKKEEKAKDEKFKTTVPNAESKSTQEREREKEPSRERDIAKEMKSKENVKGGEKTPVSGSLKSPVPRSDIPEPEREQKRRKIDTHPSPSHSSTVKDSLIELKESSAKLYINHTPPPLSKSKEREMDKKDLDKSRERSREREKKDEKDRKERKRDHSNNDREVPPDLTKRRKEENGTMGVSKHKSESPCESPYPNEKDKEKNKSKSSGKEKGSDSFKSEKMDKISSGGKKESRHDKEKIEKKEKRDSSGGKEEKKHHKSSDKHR
UniProt O43493: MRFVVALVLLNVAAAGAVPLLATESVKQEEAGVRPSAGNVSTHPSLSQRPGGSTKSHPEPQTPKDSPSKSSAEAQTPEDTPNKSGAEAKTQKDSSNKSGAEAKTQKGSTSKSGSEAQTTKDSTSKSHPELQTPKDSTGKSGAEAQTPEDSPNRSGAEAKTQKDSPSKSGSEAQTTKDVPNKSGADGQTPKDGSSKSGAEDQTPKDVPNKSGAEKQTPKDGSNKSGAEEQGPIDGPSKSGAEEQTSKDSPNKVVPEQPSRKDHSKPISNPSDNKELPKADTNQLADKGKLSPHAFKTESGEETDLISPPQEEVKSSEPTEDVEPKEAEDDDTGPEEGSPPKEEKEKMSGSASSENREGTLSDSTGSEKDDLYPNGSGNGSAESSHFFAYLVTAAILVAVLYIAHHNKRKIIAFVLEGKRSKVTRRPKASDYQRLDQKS
UniProt Q15814: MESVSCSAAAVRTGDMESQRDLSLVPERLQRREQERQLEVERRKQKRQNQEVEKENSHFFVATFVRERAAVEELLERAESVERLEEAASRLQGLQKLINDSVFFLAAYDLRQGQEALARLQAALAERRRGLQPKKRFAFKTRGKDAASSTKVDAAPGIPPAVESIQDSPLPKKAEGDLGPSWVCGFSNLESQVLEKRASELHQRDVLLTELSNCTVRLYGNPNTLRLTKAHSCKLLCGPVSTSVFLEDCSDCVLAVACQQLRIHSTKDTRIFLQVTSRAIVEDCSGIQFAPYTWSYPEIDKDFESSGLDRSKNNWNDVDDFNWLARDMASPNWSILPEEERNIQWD
UniProt Q8NFU7: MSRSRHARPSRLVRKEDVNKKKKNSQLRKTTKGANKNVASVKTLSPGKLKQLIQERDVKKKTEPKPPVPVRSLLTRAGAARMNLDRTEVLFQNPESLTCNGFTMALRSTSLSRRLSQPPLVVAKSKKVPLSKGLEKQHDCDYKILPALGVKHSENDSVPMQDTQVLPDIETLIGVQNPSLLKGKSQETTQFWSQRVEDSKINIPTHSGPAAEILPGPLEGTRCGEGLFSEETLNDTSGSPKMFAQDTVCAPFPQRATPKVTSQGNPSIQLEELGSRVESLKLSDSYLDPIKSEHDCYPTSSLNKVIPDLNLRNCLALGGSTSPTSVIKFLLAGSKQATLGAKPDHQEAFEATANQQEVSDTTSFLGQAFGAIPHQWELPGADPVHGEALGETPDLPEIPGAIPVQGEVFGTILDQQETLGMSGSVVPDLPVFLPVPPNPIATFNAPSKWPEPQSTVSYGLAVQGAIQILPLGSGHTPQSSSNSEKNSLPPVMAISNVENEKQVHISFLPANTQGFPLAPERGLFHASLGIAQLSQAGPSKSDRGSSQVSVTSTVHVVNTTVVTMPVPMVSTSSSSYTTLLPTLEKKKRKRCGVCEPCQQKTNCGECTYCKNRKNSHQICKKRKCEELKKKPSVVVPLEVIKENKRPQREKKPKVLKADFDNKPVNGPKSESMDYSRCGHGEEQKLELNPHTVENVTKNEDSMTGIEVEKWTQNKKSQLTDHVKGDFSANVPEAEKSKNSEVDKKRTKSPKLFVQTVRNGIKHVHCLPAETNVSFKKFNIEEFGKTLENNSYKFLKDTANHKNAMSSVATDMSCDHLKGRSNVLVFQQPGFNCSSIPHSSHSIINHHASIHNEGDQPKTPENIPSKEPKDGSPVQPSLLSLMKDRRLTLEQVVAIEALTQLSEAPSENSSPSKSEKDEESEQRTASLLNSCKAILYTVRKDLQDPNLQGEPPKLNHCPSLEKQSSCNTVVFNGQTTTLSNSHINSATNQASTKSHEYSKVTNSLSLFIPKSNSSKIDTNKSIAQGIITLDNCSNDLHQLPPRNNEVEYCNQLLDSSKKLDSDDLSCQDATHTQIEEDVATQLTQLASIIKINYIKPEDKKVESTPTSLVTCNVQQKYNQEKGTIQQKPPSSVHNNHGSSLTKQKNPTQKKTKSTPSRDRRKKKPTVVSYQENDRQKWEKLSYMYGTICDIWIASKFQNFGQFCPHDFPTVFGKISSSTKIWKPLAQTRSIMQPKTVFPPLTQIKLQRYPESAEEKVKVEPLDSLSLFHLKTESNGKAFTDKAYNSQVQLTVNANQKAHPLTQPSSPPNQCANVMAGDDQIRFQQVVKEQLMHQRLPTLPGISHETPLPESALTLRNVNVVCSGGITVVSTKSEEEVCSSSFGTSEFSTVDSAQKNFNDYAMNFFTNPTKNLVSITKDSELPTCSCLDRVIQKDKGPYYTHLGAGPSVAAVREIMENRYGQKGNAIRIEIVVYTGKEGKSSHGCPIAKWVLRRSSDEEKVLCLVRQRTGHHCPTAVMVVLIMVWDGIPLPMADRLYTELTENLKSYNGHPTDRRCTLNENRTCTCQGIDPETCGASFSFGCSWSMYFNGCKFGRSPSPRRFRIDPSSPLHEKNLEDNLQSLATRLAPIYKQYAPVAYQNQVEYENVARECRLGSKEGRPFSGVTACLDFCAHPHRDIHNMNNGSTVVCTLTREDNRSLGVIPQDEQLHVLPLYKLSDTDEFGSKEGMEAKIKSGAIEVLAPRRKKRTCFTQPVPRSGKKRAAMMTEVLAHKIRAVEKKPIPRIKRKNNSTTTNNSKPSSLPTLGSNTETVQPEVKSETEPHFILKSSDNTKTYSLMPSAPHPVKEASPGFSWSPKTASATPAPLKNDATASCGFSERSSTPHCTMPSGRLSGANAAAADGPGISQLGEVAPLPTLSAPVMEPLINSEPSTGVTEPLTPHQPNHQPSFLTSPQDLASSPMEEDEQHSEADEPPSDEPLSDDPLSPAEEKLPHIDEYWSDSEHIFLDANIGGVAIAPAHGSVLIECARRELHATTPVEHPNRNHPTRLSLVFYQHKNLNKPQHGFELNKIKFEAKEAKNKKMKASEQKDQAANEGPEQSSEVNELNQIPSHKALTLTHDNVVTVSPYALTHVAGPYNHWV
UniProt O60907: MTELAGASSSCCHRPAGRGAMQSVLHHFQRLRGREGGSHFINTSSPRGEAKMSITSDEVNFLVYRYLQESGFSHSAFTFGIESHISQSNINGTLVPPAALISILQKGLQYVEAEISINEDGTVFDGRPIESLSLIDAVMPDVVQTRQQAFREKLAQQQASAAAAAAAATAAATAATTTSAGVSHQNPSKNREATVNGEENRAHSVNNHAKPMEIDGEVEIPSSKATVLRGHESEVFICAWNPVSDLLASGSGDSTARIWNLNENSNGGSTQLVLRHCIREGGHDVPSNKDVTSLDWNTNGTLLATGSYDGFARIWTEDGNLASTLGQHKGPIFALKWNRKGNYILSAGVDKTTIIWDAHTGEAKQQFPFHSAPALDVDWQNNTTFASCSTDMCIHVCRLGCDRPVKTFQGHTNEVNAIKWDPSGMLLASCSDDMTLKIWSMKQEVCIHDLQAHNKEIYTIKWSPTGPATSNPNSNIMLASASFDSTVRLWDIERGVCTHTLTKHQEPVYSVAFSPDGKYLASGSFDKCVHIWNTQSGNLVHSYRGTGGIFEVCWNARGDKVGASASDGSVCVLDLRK
UniProt Q12788: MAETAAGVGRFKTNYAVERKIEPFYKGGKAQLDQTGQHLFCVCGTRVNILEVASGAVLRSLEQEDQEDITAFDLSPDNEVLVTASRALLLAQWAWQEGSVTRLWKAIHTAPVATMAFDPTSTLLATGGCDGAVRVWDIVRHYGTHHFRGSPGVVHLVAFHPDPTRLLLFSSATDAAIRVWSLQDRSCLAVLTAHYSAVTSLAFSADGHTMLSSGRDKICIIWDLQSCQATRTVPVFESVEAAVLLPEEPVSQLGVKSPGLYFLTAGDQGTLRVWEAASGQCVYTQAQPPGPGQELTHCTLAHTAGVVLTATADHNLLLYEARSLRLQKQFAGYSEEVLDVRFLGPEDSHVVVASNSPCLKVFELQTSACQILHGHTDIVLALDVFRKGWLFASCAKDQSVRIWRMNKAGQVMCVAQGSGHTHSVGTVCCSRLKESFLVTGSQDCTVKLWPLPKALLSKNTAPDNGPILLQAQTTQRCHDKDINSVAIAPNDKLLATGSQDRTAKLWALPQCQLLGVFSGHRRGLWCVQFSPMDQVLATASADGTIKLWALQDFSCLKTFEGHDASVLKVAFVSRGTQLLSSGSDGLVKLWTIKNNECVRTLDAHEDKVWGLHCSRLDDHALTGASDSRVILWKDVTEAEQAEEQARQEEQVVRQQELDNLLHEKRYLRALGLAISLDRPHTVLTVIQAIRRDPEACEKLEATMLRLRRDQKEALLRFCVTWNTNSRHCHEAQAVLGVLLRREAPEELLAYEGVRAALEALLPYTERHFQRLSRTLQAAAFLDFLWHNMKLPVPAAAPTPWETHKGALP
UniProt P21980: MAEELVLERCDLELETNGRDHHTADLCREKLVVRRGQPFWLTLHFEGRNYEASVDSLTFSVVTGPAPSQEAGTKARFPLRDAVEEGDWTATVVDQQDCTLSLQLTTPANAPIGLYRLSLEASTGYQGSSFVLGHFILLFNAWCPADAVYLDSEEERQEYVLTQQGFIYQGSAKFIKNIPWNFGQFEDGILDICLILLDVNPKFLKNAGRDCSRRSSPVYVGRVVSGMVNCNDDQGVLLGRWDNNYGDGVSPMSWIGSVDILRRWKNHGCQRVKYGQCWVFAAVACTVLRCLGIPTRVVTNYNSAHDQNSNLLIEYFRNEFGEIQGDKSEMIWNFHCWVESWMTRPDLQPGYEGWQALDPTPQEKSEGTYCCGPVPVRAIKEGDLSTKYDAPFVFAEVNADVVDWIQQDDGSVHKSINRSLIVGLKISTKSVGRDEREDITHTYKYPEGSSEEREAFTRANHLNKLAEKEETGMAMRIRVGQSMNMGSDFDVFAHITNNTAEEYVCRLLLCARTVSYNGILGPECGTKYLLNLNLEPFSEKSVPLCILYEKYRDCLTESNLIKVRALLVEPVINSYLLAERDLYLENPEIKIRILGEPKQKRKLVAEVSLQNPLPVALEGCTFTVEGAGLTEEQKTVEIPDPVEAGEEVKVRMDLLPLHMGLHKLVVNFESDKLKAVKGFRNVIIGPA

The other results are listed elsewhere or left out.

Compound in this experiment: C1=CC2=C(C=CC(=C2)/C=C\3/C(=O)NC(=NCC4=CC=CS4)S3)N=C1
The experiment in a line: log2 fold change, soluble protein after heating vs DMSO (PISA); higher = thermal stabilisation; K562 cells, 10 uM, 30 min; active = over 0.2 and 3.5 SD of the protein, either way, in both replicates (recomputed). In a few lines: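 K562 cells at 2×10^6 cells/mL were treated for 30 min with 10 μM compound, and aliquots were heated for 3 min over 48°C-58°C before pooling. Extraction used PBS with 0.5% NP-40 at 4°C, and soluble protein was the supernatant after 21,000xg for 90 min, measured by TMTpro 16plex LC-MS/MS with channel sums equalised. Thermal stability values, relative to control samples and from duplicates, are log2 fold changes.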
On to TJAP1 (UniProt Q5JTD0), for which the log2 fold change was inactive: -0.073.
As for TCEA1 (UniProt P23193), the log2 fold change is inactive: -0.036.
Take TIMM50 isoform 2 (UniProt Q3ZCQ8): the log2 fold change is inactive: -0.001.
Regarding THUMPD1 (UniProt Q9NXG2), the log2 fold change is inactive: 0.038.
For the target THBS1 (UniProt P07996), the log2 fold change is inactive: 0.087.
As for TCIRG1 (UniProt Q13488), the log2 fold change was inactive: -0.168.
On to TCF3 (UniProt P15923), for which the log2 fold change was inactive: -0.102.
The result for THOC1 (UniProt Q96FV9) reads inactive: -0.059; that for THOC2 (UniProt Q8NI27), inactive: -0.061; that for THNSL1 (UniProt Q8IYQ7), inactive: -0.02.
As for TBC1D22B (UniProt Q9NU19), the figure is inactive: -0.138; as for TLCD4 (UniProt Q96MV1), inactive: 0.009.
Consider THOC7 (UniProt Q6I9Y2), for which the log2 fold change was inactive: -0.034.
On to TKFC (UniProt Q3LXA3), for which the log2 fold change was inactive: 0.023.
The result for TGFBR3 (UniProt Q03167) reads inactive: 0.006; that for TKT isoform 2 (UniProt P29401), inactive: -0.033.
As for TDRKH (UniProt Q9Y2W6), the figure is inactive: 0.017; as for TGOLN2 isoform 7 (UniProt O43493), inactive: 0.027; as for TBCC (UniProt Q15814), inactive: 0.
The result for TF (UniProt P02787) reads inactive: 0.158.
Regarding TDP2 isoform 2 (UniProt O95551), the log2 fold change was inactive: 0.034.
As for TERF2 (UniProt Q15554), the figure is inactive: -0.06; as for THOC6 (UniProt Q86W42), inactive: -0.007.
As for TBCB (UniProt Q99426), the figure is inactive: 0.016; as for TIMMDC1 (UniProt Q9NPL8), inactive: 0.064; as for TBCE (UniProt Q15813), inactive: 0.154.
Turning to TK2 isoform 6 (UniProt O00142), the log2 fold change was inactive: 0.136.
As for TIMM23 (UniProt O14925), the figure is inactive: -0.064; as for TET1 (UniProt Q8NFU7), inactive: 0.268; as for TCP1 (UniProt P17987), inactive: -0.007.
As for TBL1X (UniProt O60907), the log2 fold change is inactive: 0.002.
Regarding TFB1M (UniProt Q8WVM0), the log2 fold change was inactive: -0.052.
The result for TBL3 (UniProt Q12788) reads inactive: -0.082; that for TIMM8B (UniProt Q9Y5J9), inactive: -0.006.
The result for TBC1D4 (UniProt O60343) reads inactive: 0.034; that for TGM2 (UniProt P21980), inactive: -0.006.
The result for TBL1XR1 (UniProt Q9BZK7) reads inactive: -0.001.
As for TESC (UniProt Q96BS2), the log2 fold change was inactive: 0.066.
The result for TCF12 isoform 3 (UniProt Q99081) reads inactive: -0.127.
